Assay results published in patent US20230271923A1 (The Johns Hopkins University, priority 2020, published 2023).

Experiment: peptide synthesis
Settings: conjugation step

Q: For “Cyclo-(-Ac-Tyr-NMeAla-Asn-Pro-His-Glu-Hyp-Trp-Ser-Trp(Carboxymethyl)-NMeNle-NMeNle-Lys(NODA_NCS[^18F]AlF)-Cys-)-Gly-NH2”, which conjugation yield is on record?
A: Its conjugation yield is 65%.
